Measured values: paper PMC8688422
Results are given in words; binding and its absence hold for the method and conditions named. Some binding calls cover weakened binding; strength is not graded here.

Sequences of proteins named here, by UniProt entry; tags and fusion partners are left off. Residues count along the entry.
UniProt P13501, residues 24-91: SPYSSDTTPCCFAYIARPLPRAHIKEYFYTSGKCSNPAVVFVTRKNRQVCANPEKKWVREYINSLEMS
UniProt P09382, residues 2-135: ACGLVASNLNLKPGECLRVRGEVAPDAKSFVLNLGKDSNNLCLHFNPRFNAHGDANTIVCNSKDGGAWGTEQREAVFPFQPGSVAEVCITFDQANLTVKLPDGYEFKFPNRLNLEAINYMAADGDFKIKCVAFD

Biological target: CCL5 (RANTES) (UniProt P13501)
Assay: far-Western, overlay or dot blot; spot blot: 3 µg of each protein spotted on nitrocellulose, incubated 1 h with 1 µg/mL recombinant galectin-1 or galectin-9 in PBS/0.1% Tween, bound galectin detected with anti-galectin antibody; both purified

binding | Substance
binds | galectin-1 (from UniProt P09382 2-135)
binds | galectin-9 (from UniProt O00182 1-355)
